# Data published in PubChem BioAssay AID504467 (National Center for Advancing Translational Sciences (NCATS), 2011).
# Hit rate of the full screen: of about 330,000 compounds, about 7,700 (2.3%) were called active. The inconclusive results got no clear call from the source; some entries with a clear call stand among them for comparison. Calls follow the shape of the dose curve; as a rule, active = well fitted inhibition curve with a large enough effect; inconclusive = small, poorly fitted or top-dose-only effect, or effect the other way; inactive = flat fitted curve, though single readings scatter. Potencies of inconclusive entries are doubtful fits and often do not repeat.
# Test: qHTS screen for small molecules that inhibit ELG1-dependent DNA repair in human embryonic kidney (HEK293T) cells expressing luciferase-tagged ELG1; also: nearly all actives have a fitted effect of over 55% in size
# Conditions: HEK293T ELG1-luciferase reporter, luminescence, 16 h, DNA damage induced by 5-fluorouridine; activity change, negative = inhibition: at 46.1 µM (top of the series)
# Procedure, shortened: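 Overnight (16 hr) co-exposure of 2,000 cells/well to 5-fluorouridine and compound at 37 °C preceded detection. Luciferase was quantified via ONE-Glo luminescence; loss of signal denotes inhibition.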
# % is scaled to controls: 0 for no effect and ±100 for the full control effect; potency is read from the fitted curve at half-maximal effect.
SMILES,Potency,"activity change, negative = inhibition"
O=c1[nH]c(C2CCN(S(=O)(=O)c3ccccc3F)CC2)nc2c1nnn2Cc1ccc(OC(F)(F)F)cc1,active: 18.3 µM,–
CCN(CC)C(=O)COc1ccc(/C=C(\C#N)S(=O)(=O)c2ccccc2)cc1OC,–,inactive: 3.84%
CCCCCC(C)NC(=O)CN1C(=O)NC(C)(c2ccc3ccccc3c2)C1=O (configuration not stated),–,inactive: 2.31%
COc1ccc(-n2cc(-c3ccc(OC(F)F)cc3)[n+]3c2CCCCC3)cc1,active: 5.17 µM,–
Cc1ccc(Cl)cc1N1CCN(C(=O)CN(C2CCCCC2)S(C)(=O)=O)CC1,active: 18.4 µM,–
COc1ccc(Br)cc1S(=O)(=O)n1ccnc1C,"inconclusive: 16.4 µM [activator, partial curve, poor fit]",–
O=C(/C=C/c1cccc(F)c1)NC1CCN(Cc2ccccc2)CC1,–,inactive: -9.22%
CCOc1cccc(/C=N/NC(=O)c2cccnc2)c1O,"inconclusive: 18.3 µM [inhibitor, partial curve, poor fit]",–
CCN(C(=O)c1cnc(NC(C)C)cc1C(F)(F)F)c1ccc(Cl)cc1Cl,"inconclusive: 18.3 µM [inhibitor, single point]",–
CC(=O)c1c(C)[nH]c(C(=O)COC(=O)CN2C(=O)C3CCCCC3C2=O)c1C (configuration not stated),"inconclusive: 4.61 µM [inhibitor, single point]",–
O=C(CCCC(=O)Nc1cccc(Br)c1)N/N=C/c1cc([N+](=O)[O-])ccc1O,active: 14.6 µM,–
Cc1ccc(NC(=O)COc2ccccc2)c(NC(=O)c2ccco2)c1,–,inactive: 7.01%
O=C(NCCC1=CCCCC1)Nc1ccc2nsnc2c1,–,inactive: 11.3%
CC(C)CN(c1ccccc1)S(=O)(=O)c1nnc(NC(=O)c2ccco2)s1,"inconclusive: 6.51 µM [inhibitor, single point]",–
CCCOc1ccccc1C(=O)Nc1ccc(S(=O)(=O)N2CCN(C)CC2)cc1,"inconclusive: 2.91 µM [inhibitor, full curve]",–
O=C(Nc1ccccc1)Nc1cccc2nsnc12,"inconclusive: 4.61 µM [activator, partial curve]",–
O=C1c2[nH]nc(-c3ccccc3O)c2C(c2cccc(Cl)c2)N1CC1CCCO1 (configuration not stated),"inconclusive: 29.1 µM [inhibitor, single point]",–
O=C(CSc1nnc(-c2ccc(O)cc2)n1Cc1ccccc1)NNC(=O)c1ccc(Br)cc1,–,inactive: -3.41%
Nc1nnc(SCC(=O)NC2CCCCC2)n1-c1ccccc1,"inconclusive: 20.6 µM [activator, single point]",–
COc1ccc(-c2ccc(NC(=O)c3ccco3)cc2)nn1,"inconclusive: 0.82 µM [activator, partial curve, poor fit]",–
CCOc1ccc(NC(=O)COc2ccc(C(=O)NCCc3ccccc3)cc2)cc1,"inconclusive: 20.6 µM [activator, partial curve, poor fit]",–
CC1(C)Cc2nc3sc(C(=O)NCCCO)c(N)c3cc2CO1,"inconclusive: 20.6 µM [activator, partial curve]",–
COc1ccc(CNC(=O)[C@H](C)[C@@H]2C[C@@]2(C)[C@@H](NC(=O)OCc2ccccc2)c2ccccc2)cc1OC,"inconclusive: 29.1 µM [inhibitor, single point]",–

SMILES,Potency,"activity change, negative = inhibition"
NC(=O)C1CCCN(C(=O)c2ccc(NC(=O)c3cccs3)cc2)C1 (configuration not stated),–,inactive: 21.8%
COc1ccc(Cl)cc1NC(=O)CN1CCc2ccccc2C1,"inconclusive: 29.1 µM [inhibitor, single point]",–
CN(C(=O)CSc1nnc(-c2ccco2)o1)C1CCCCC1,"inconclusive: 13 µM [activator, partial curve]",–
COc1ccc(N2C(=O)C(CC(N)=O)N(NC(=O)c3cccc(OC)c3)C2=S)cc1 (configuration not stated),"inconclusive: 23.1 µM [activator, single point]",–
COc1ccc(C)cc1NC(=O)CN1CCN(c2ccc(F)cc2)CC1,–,inactive: -10.2%
CC(=O)c1ccccc1NC(=O)COC(=O)c1cc[n+]([O-])cc1,"inconclusive: 25.9 µM [activator, single point]",–
CCOc1ccc(-c2nnc(Nc3ccc(OC)c(C(=O)N4CCCCC4)c3)c3ccccc23)cc1,"inconclusive: 25.9 µM [inhibitor, single point]",–
O=C(CCc1nc2ccccc2c(=O)[nH]1)NNC(=O)COc1ccc(Br)cc1,–,inactive: 1.48%
CC(C)c1ccc(C(=O)N/N=C/c2cccc(Cl)c2Cl)cc1,"inconclusive: 16.4 µM [activator, partial curve]",–
CC1CC(C)CN(S(=O)(=O)c2ccccc2[N+](=O)[O-])C1 (configuration not stated),–,inactive: -4.6%
CC(C)(C)OC(=O)N1CCC(NC(=O)c2ncn(Cc3ccccc3)c2C(=O)NC2CCN(C(=O)OC(C)(C)C)CC2)CC1,"inconclusive: 14.6 µM [inhibitor, partial curve, poor fit]",–
Cn1c2c(c(=O)[nH]c1=O)C(c1ccc(O)cc1)C1=C(N2)c2ccccc2C1=O (configuration not stated),"inconclusive: 18.3 µM [inhibitor, partial curve]",–
COc1ccc(OCC(=O)Nc2ccc(N3CCN(C(=O)c4ccccc4)CC3)c(Cl)c2)cc1,active: 11.6 µM,–
O=S(=O)(c1ccccc1)N(CC(O)Cn1c2ccccc2c2ccccc21)c1ccccc1 (configuration not stated),"inconclusive: 29.1 µM [inhibitor, single point]",–
CC(C)(C)Nc1nc2cc([N+](=O)[O-])ccc2o1,"inconclusive: 20.6 µM [activator, partial curve, poor fit]",–
CCC(C)NCCC(=O)Nc1ccc(Cl)c(S(=O)(=O)Nc2ccc(Cl)cc2)c1 (configuration not stated),–,inactive: -1.72%
COc1ccc(S(=O)(=O)N2CCC(C(=O)Nc3nccs3)CC2)cc1,"inconclusive: 18.3 µM [activator, partial curve]",–
Cc1cccc(CC(=O)NC2CCS(=O)(=O)C2)c1 (configuration not stated),"inconclusive: 0.58 µM [activator, partial curve, poor fit]",–
Cn1cc(C(=O)NCc2ccc(F)cc2)c(=O)c2cc(S(=O)(=O)N3CCCCC3)ccc21,"inconclusive: 29.1 µM [inhibitor, single point]",–
O=C(NC1CCCCC1)OCCN1CCN(Cc2ccccc2)CCC1=O,–,inactive: -2.52%
C=CCOc1ccc(/C=C/C(=O)OCC(=O)Nc2c(C)n(C)n(-c3ccccc3)c2=O)cc1,"inconclusive: 14.6 µM [activator, single point]",–
O=C(/C=C/c1ccc(Cl)c([N+](=O)[O-])c1)Nc1cccnc1,"inconclusive: 16.4 µM [activator, partial curve, poor fit]",–
Cc1nc2ccc(Cc3ccc4nc(C)[nH]c4c3)cc2[nH]1,"inconclusive: 29.1 µM [inhibitor, single point]",–

# Pulled by structure from the list above (3):
SMILES,Potency,"activity change, negative = inhibition"
COc1ccc(C)cc1NC(=O)CN1CCN(c2ccc(F)cc2)CC1,–,inactive: -10.2%
NC(=O)C1CCCN(C(=O)c2ccc(NC(=O)c3cccs3)cc2)C1 (configuration not stated),–,inactive: 21.8%
CC(C)c1ccc(C(=O)N/N=C/c2cccc(Cl)c2Cl)cc1,"inconclusive: 16.4 µM [activator, partial curve]",–

# Following part:

SMILES,Potency,"activity change, negative = inhibition"
Cn1ncc([N+](=O)[O-])c1C(=O)Nc1ccc(C2CCCCC2)cc1,–,inactive: -1.08%
COc1ccc(-c2cn3c(C)c(C(=O)NC(C)C)sc3n2)cc1,–,inactive: 16.5%
CCOc1ccc(-n2c(SCc3ccc([N+](=O)[O-])cc3)nnc2-c2ccc(OC)cc2)cc1,"inconclusive: 14.6 µM [inhibitor, partial curve]",–
Cc1ccccc1NC(=O)c1cc2c(C)nc3ccccc3c2o1,"inconclusive: 20.6 µM [inhibitor, partial curve, poor fit]",–
O=C(N/N=C/c1ccccn1)c1ccncc1,"inconclusive: 14.6 µM [activator, partial curve]",–
Cc1cccc(-c2cc3nc4c(c(NCc5ccco5)n3n2)CCCC4)c1,"inconclusive: 2.59 µM [activator, full curve, poor fit]",–
O=[N+]([O-])c1cccc(/C=N/Nc2ncc(Br)cn2)c1,"inconclusive: 11.2 µM [activator, partial curve]",–
O=C(Nc1ccc(Cl)cc1)C1C2C=CC3(O2)C1C(=O)N(CCCN1CCCCC1)C3C(=O)NC1CCCCC1 (configuration not stated),–,inactive: -4.44%
Cc1cc(C)nc(SCC(=O)OCC(=O)Nc2ccccc2)n1,–,inactive: 16.1%
CC1=C(C(=O)Nc2ccccc2)C(c2ccccc2[N+](=O)[O-])NC(=O)N1 (configuration not stated),"inconclusive: 23.1 µM [activator, partial curve]",–
CC(C)(C)c1ccc(C(=O)NCC(=O)OCCN2C(=O)c3ccccc3C2=O)cc1,"inconclusive: 11.2 µM [activator, partial curve, poor fit]",–
O=C(c1cc([N+](=O)[O-])ccc1Cl)N1CCN(Cc2ccc3c(c2)OCO3)CC1,"inconclusive: 18.3 µM [inhibitor, partial curve]",–
CCCc1nn2c(=O)cc(CSCC(=O)Nc3ccc(OC)cc3)nc2s1,"inconclusive: 14.6 µM [activator, partial curve, poor fit]",–
c1coc(-c2ccnc(-c3ccncc3)n2)c1,"inconclusive: 20.6 µM [activator, single point]",–
Cc1csc(NC(=O)CS(=O)(=O)c2ccccc2)n1,"inconclusive: 16.4 µM [activator, single point]",–
CCOC(=O)C1CCN(C(=O)COc2ccc(Br)cc2)CC1,–,inactive: -5.49%
COC(=O)C1=C(C)NC(=O)CC1c1cc2c(cc1Br)OCO2 (configuration not stated),"inconclusive: 23.1 µM [activator, partial curve, poor fit]",–
COc1ccc(-c2nc(NC(=O)C3CC(=O)N(Cc4ccco4)C3)sc2C)cc1 (configuration not stated),–,inactive: 0%
O=C(COc1ccc2ccccc2c1Br)Nc1cccnc1,"inconclusive: 2.91 µM [activator, single point]",–
COc1cccc(NC(=O)c2cccc(C)c2[N+](=O)[O-])c1,"inconclusive: 23.1 µM [activator, partial curve]",–
CC(C)(C)OC(=O)NCCCCCc1nnc(SCc2cccc(F)c2)o1,"inconclusive: 25.9 µM [inhibitor, partial curve]",–
